{"source": "patent US20210214454A1", "binders": {"B1": {"name": "antibody 15833 (antibody, human IgG1, kappa, L234A L235A, V domains shown)", "VH": "QVQLVESGGGVVQPGRSLRLSCAASGFTFSNYAMHWVRQAPGKGLEWVALISFDGSYKYYADSVKGRFTISRDNSKNTLYLQMNSLRAEDTAVYYCVKDAGYSSSWFFDYWGQGTLVTVSS", "VL": "DIQMTQSPSSVSASVGDRVTITCRASQDISSWLAWYQQKPGKAPKLLIYAASSLQSGVPSRFSGSGSGTDFTLTISSLQPEDFGNYYCQQANSFPWTFGQGTKVEIKR"}, "B2": {"name": "antibody 16154 (antibody, human IgG1, kappa, L234A L235A, V domains shown)", "VH": "EVQLVESGGGLVQPGGSLRLSCAASGFTFTSYWMSWVRQAPGKGLEWVANIKQDGSEKYYVDSVKGRFTISRDNAKNSLYLQMNSLRAEDTAVYYCARGPVAGPYWYFDLWGRGTLVTVSS", "VL": "AIQMTQSPSSLSASVGDRVTITCRASQGIRNDLGWYQQKPGKAPKLLIYAASSLQSGVPSRFSGSGSGTDFTLTISSLQPEDFATYYCLQDYHYPLTFGGGTKVEIKR"}}, "target": "cynomolgus CD40 extracellular domain (ECD) (cynomolgus)", "assay": "SPR (IBIS MX96)", "note": "No constants are given. Whether binding was seen depends on the method and setting. Binding can be weak; no strength is given."}
{"binder": "B1", "values": [{"measurement": "binding", "value": "binds"}]}
{"binder": "B2", "values": [{"measurement": "binding", "value": "binds"}]}
